The values below come from patent US12583818B2 (DAEGU-GYEONGBUK MEDICAL INNOVATION FOUNDATION, priority 2020, dated 2026).

Chains of the proteins cited; added tags and fusions are not shown.
UniProt Q13526, whole entry: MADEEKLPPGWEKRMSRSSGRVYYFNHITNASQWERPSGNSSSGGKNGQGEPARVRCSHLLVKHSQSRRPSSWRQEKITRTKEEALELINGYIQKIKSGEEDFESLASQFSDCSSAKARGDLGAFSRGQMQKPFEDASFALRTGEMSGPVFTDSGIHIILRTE

One assay concerns the target Pin1 (Homo sapiens, UniProt Q13526). In words: Evaluation of Pin1 enzyme inhibitory activity (Sensolyte Green Pin1 assay kit). The conditions noted are these: read-out: Pin 1 inhibition; concentration at which the Pin1 enzyme activity is inhibited; 2 hours at room temperature, fluorescence 490 nm/520 nm. Here is the method: In order to evaluate the Pin1 enzyme inhibitory activity of the compound represented by formula 1 according to the present invention, the following experiment was performed, and the results are shown in Table 2 below.
The enzyme activity of Pin1 protein was measured using a sensolyte Green Pin1 assay kit of Anaspec. The substrate was diluted in a buffer at a ratio of 1:100 to prepare a concentration of 1 μM, and the protein was diluted in a buffer at a ratio of 1:20 to prepare a concentration of 50 μg/ml. In addition, a developing solution was prepared by diluting thereof in a buffer at a ratio of 1:100.
The compound prepared in each example was diluted with DMSO and prepared at a concentration of 100 μM, 10 μM, 1 μM or 0.1 μM using a buffer. After sequentially adding 10 μl of the compound prepared in each Example diluted to four concentrations according to the above method, 10 μl of Pin1 protein, and 30 μl of the developing solution to each well of a black 96-well plate, […]. Finally, 50 μl of the substrate was added to each well of the plate, and the enzyme reaction was carried out after shaking the plate for 10 seconds.
Then, the plate was incubated for 2 hours at room temperature in an environment without light, and the fluorescence values at 490 nm/520 nm wavelength were measured using a device of Synergy Neo (Tecan). […]

Assay [1] has as its system A2780 cells (ovarian cancer cells). Briefly: Cell viability of A2780 cells (Cell-titer Glo). The following applies: read-out: A2780, culture for 3 days. The protocol: (§1) In order to confirm the inhibitory effect of the compound represented by formula 1 according to the present invention on the growth of MCF7, MCF7-SP, A2780 or A2780-SP cells, the following experiment was performed, and the results are shown in Tables 4 and 5 below.
In addition, A2780 cells (ovarian cancer cells) were plated in a 96-well plate at the density of 3000 viable cells per well, and cultured in RPMI-1640 medium supplemented with 10% FBS and 1% penicillin/streptomycin.
On the next day of culture, the cells were treated with the compound of Examples 57, and 69 to 144, followed by culture for 3 days. Cell viability was evaluated by Cell-titer Glo (Promega, WC, USA), and luciferase activity was detected using a Tecan plate reader (Biocompare, USA).

The test system of assay [2] is A2780-SP cells (ovarian cancer stem cells). Briefly: Sphere cell viability of A2780-SP cells (Cell-titer Glo). The following applies: read-out: A2780-SP, culture for 8 days. Here is the method:
as §1
On the other hand, A2780-SP cells (ovarian cancer stem cells) were plated in an Ultra-Low Attachment round bottom 96-well plate (corning) at the density of 1,500 viable cells per well, and cultured in cancer stem cell medium. The cancer stem cell medium is composed of the neurobasal medium supplemented with 20 ng/ml of bFGF, 10 ng/ml of EGF, […] of amphotericin B, HEPES, Glutamax and B27.
On the next day of culture, the cells were treated with the compound of Examples 57, and 69 to 144, followed by culture for 8 days. The medium containing the compound was added thereto once again on the 4th day. Sphere cell viability was evaluated by Cell-titer Glo (Promega, WC, USA), and luciferase activity was detected using a Tecan plate reader (Biocompare, USA).

Structures are written as SMILES. Structures were worked out from names or drawings and are uncertain.

On to `CN1CCN(c2ccnc(Nc3ccc(S(=O)(=O)NCCCc4c[nH]c5ccc(Cl)cc45)cc3)n2)CC1`, for which the IC50 on Pin1 was less than 1 µM; in assay [1], greater than 10 µM; in assay [2] it was 1 to 10 µM.
